Data from US20250026769A1, “PAPD5 INHIBITORS AND METHODS OF USE THEREOF” (The Children's Medical Center Corporation, priority 2021, published 2025).
Some entries share one result that the patent states for a list of compounds.

System: TERC 3′ end processing in DC patient iPSCs
Assay: TERC 3′ end processing by RACE in DC patient / PARN-mutant iPSCs
Type: cell-based, human
Conditions: higher / more potent than cmpd. 1
Description: Compound 266A had activity ˜2-logs higher in the in vitro RNA oligoadenylation assay compared to the parental compound cmpd. 1, approximating the activity of RG7834 (FIG. 7). […] 1. Compounds 295A and 296A had activity 2-3 logs higher in DC patient iPSCs, showing TERC maturation at 1 nM, similar to RG7834 (FIG. 6). […] Referring to Table 1D, “+” refers to activity at 1 μM, “++” refers to activity above 1 nM and below 1 μM, and “+++” refers to activity at <1 nM, “ND” refers to not determined.

## O=C(O)c1cc(Cl)ccc1Nc1c(C2CCOCC2)cnc2ccc(Cl)cc12 [Compound 296A, 5-chloro-2-[(6-chloro-3-tetrahydropyran-4-yl-4-quinolyl)amino]benzoic acid]
  activity in DC patient iPSCs (TERC maturation) relative to cmpd. 1: 2-3 logs

## Cl.O=C(O)c1cc(Cl)ccc1Nc1c(-c2ncco2)cnc2ccc(Cl)cc12 [Compound 295A, 5-chloro-2-[(6-chloro-3-oxazol-2-yl-4-quinolyl)amino]benzoic acid]
  activity in DC patient iPSCs (TERC maturation) relative to cmpd. 1: 2-3 logs
